# Measurements taken from patent US10610602B2, “Tumor cell-specific responsive self-assembling drug nanoconjugate” (KOREA INSTITUTE OF SCIENCE AND TECHNOLOGY, priority 2017, dated 2020).
# Not every detail of the peptide structures is certain; ends, links or a residue may be inferred. Residues, ends and D or L forms follow the SMILES beside them. *: point of attachment. Doxorubicin(3'-N) = COc1cccc2c1C(=O)c1c(O)c3c(c(O)c1C2=O)C[C@@](O)(C(=O)CO)C[C@@H]3O[C@H]1C[C@H](N*)[C@H](O)[C@H](C)O1
# Assays:
# [1] = tested on: HT29 tumor; details: 5 mg/kg tail vein once every three days for 15 days
# Description: In this example, the in vivo anticancer effects of doxorubicin (Free DOX) and FRRG-DOX (SEQ ID NO: 7) of Example 1 were investigated. First, 1×10^7 HT-29 cells were directly injected into the right flank of each tumor animal model constructed in 1) (n=4 per group). When the tumor size reached ˜200 mm^3, doxorubicin (Free DOX, 5 mg/kg) and FRRG DOX (SEQ ID NO: 7) of Example 1 (5 mg/kg) were administered by tail vein injection once every three days for 15 days.
# The therapeutic efficacies of Free DOX, FRRG-DOX (SEQ ID NO: 7), and the control were compared by measuring the tumor volumes (maximum diameter×minimum diameter 2×0.53) for 15 days. The viabilities and weights of the tumor animal models were measured once a day for 15 days. The accumulations of Free DOX and FRRG-DOX (SEQ ID NO: 7) in the tumor tissues of the tumor animal models were monitored using IVIS Lumina Series III (PerkinElmer, Massachusetts, USA). The fluorescence intensities of Free DOX and FRRG-DOX (SEQ ID NO: 7) in the tumor tissues were quantified using the Living Image software (PerkinElmer, Massachusetts, USA).
# Annexin V staining was performed to confirm that apoptosis occurred in tumor tissues excised from the tumor animal models. […]
# [2] = tested on: HT-29 cells; test: In vitro cell viability (CCK); assay type: cell-based, human; details: HT29, 48 h, FIG. 2E
# Description: First, HT-29 cells were plated in a 96-well plate at a density of 1×10^4 cells/well. […] Then, […] of CCK solution was added to each well. After further culture for 30 min, the absorbance of each 96-well plate at 450 nm was analyzed using a microplate reader (VERSAmax™, Molecular Devices Corp., Sunnyvale, Calif.). For comparison, the cell viabilities (%) of H9C2 cells (normal cells) were measured in the same manner as described above.
structure (smiles),measurement,setting,value
COc1cccc2c1C(=O)c1c(O)c3c(c(O)c1C2=O)C[C@@](O)(C(=O)CO)C[C@@H]3O[C@H]1C[C@H](NC(=O)CNC(=O)[C@H](CCCNC(=N)N)NC(=O)[C@H](CCCNC(=N)N)NC(=O)[C@H](Cc2ccccc2)NC(C)=O)[C@H](O)[C@H](C)O1 [FRRG-DOX] (Ac-FRRG-{Doxorubicin(3'-N)}),inhibition of tumor growth (tumor volume),[1],significantly inhibit tumor growth
same,effect on growth / viability of tumor cells,[2],selectively inhibited the growth of tumor cells
